Results taken from patent US20050215770A1.
These are yes or no findings as the source states them, for the method shown. Some entries that bind do so weakly or less than the wild type. Where a sequence is shown, tags or fusion partners need not be part of it.

T1: Recombinant soluble human Flag-tagged NogoR (amino acids 1 to 309 of SEQ ID NO:2) (human) (UniProt Q9BZR6)
T1 sequence (chain, biotinylated with Sulfo-NHS-LC-Biotin): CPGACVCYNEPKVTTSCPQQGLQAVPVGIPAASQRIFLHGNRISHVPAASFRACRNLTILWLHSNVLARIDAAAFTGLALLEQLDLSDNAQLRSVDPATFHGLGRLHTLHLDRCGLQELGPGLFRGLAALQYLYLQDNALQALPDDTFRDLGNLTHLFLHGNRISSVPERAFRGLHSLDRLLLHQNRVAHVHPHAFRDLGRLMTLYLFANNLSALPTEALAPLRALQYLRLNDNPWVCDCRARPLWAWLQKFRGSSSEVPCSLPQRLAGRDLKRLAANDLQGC


Columns and labels:
[1] = target: T1, Recombinant soluble human Flag-tagged NogoR (amino acids 1 to 309 of SEQ ID NO:2) (human); assay: ECL phage screen (Example 1)
[2] = target: T1, Recombinant soluble human Flag-tagged NogoR (amino acids 1 to 309 of SEQ ID NO:2) (human); assay: ECL phage screen on biotin-rHuNOGOSR-Flag (positive: 5-fold above background)

| Binder | binding [1] | binding [2] |
| --- | --- | --- |
| NGE2648 (scFv) scFv: QVQLQQSGRGLVQPGRSLRLSCTASGFTFGDYAMSWVRQAPGKGLEWVGLIRSKAYGGTTEYAASVKGRFTISRDDSKSIAYLQMNSLRTEDTAVYYCATDFWSGYSYWGKGTLVTVSSGGGGSGGGGSGGGGSDIQMTQSPSTLSASIGDRVTITCRASEGIYHWLAWYQQKPGKAPKLLIYKASSLASGAPSRFSGSGSGTDFTLTISSLQPDDFATYYCQQYSNYPLTFGGGTKLEIKR | binds | binds |
| NGE2968 (scFv) scFv: QVQLVQSGGGVVQPGRSLRLSCAASGFTFSSYGMHWVRQAPGKGLEWVAVISYDGSIKYYADSVKGRFTISRDNSKNTLYLQMNSLRAEDTAVYYCARTGEYSGYDTSGFQHWGRGTLVTVSSGGGGSGGGGSGGGGSQSVLTQPPSASGTPGQRVTISCSGSSSNIGSNTVNWYQRLPGAAPQLLIYNNDQRPSGIPDRFSGSKSGTSGSLVISGLQSEDEADYYCASWDDSLNGRVFGGGTKLTVLG | binds | binds |
| NGE2775 (scFv) scFv: QVQLVQSGGVVVQPGGSLRLSCAASGFTFDDYAMHWVRQAPGKGLEWVSLISWDGGSTYYADSVKGRFTISRDNSKNSLYLQMNSLRAEDTALYYCAKDLNYDFWSGSGIDVWGKGTLVTVSSGGGGSGGGGSGGGGSQSVLTQPASVSGSPGQSITISCTGTSSDVGGYNYVSWYQQHPGKAPKLMIYEGSKRPSGVSNRFSGSKSGNSASLTISGLKTEDEADYYCQSYDSSNHWVFGGGTKLTVLG | binds | binds |
| NGE2868 (scFv) scFv: EVQLVQSGGVVVQPGGSLRLSCAASGFIFDDYAMHWVRRAPGKGLEWVSLISWDGGSTYYADSVKGRFTISRDNSKNSLYLQMNSLRAEDTALYYCAKDVEGYDFWSTYYGMDAWGQGTTVTVSSGGGGSGGGGSGGGGSQSVLTQPASVSGSPGQSITISCTGTSSDVGGYNYVSWYQQRPGKAPKLMIYEGSKRPSGVSNRFSGSKSGNTASLTISGLQAEDEADYYCSSYTTRSTRVFGGGAKLTVLG | binds | binds |
| NGE2967 (scFv) scFv: QVQLQQWGAGLLKPSETLSLTCAVYGGSFSGYYWSWIRQPPGKGLEWIGEVDHSGDTTYRPSLRSRVTISVDTSKNQFSLKLSSVTAADTAVYYCARGGSYQDYWGQGTVVTVSSGGGGSGGGGSGGGGSSELTQDPAVSVASGQTVRITCQGDSLRSYYASWYQQKPGQAPVLVIYGKNNRPSGIPDRFSGSSSGNTASLTITGAQAEDEADYYCNSRDSSGNHVVFGGGTKLTVLG | binds | binds |
| NGE3040 (scFv) scFv: EVQLVQSGAEVKKTGSSVKVFCKASGYTFTYRYLHWVRQAPGQALEWMGWITPFNGNTNYAQKFQDRVTITRDRSMTTASMELSSLRSEDTAMYYCVTGSDEYAFEMWGQGTLVTVSSGGGGSGGGGSGGGGSDIVMTQSPSTLSASVGDRVTITCRASQGISSWLAWYQQKPGRAPKVLIYKASTLESGVPSRFSGSGSGTDFTLTISSLQPEDFATYYCQQSYSTPWTFGQGTKLEIKR | binds | binds |
| NGE2988 (scFv) scFv: QVQLQQSGPGLVKPSETLSLTCTVSGGSVSSGSYFWSWIRQPPGKGLEWIGNIYYSGSTNYNPSLKSRVTISVDTSRNQFSLKLSSVTAADTAVYYCARGVYYDFWGNHGMDVWGKGSMVTVSSGGGGSGGGGSGGGGSQSVLTQPASVSGSPGQSITISCTGTSSDVGGYNYVSWYQQHPGKAPKLMIYEGSKRPSGVSNRFSGSKSGNTASLTISGLQAEDEADYYCSSYTTRSTRVFGGGTKLTVLG | binds | binds |
| NGE2938 (scFv) scFv: QVQLQQWGPGLVKPSQTLSLTCTVSGGSISSRDHFWSWVRQTPGKGLEWIGYMYYNGITNYNPSLKSRVTISVDTSKNQVSLQLNSVTAADTAVYYCARAPAISSSSWPDPASIDYWGQGTLVTVSSGGGGSGGGGSGGGGSQTVLTQPASVSGSPGQSITISCTGTSSDVGGYNYVSWYQQHPGKAPKLMIYEGSKRPSGVSNRFSGSKSGNTASLTISGLQAEDEADYYCSSYTTRSTRVFGGGTKLTVLG | binds | binds |
| NGE2889 (scFv) scFv: EVQLVESGAEVKKPGASVKVSCKASGYTFTSYYMHWVRQAPGQGLEWMGWMNPNSGNTGYAQKFQGRVTMTRNTSISTAYMELSSLRSEDTAVYYCARGGARYYYMDVWGKGTLVTVSSGGGGSGGGGSGGGGSDIVMTQSPSTLSASVGDRVTITCRASQGISSWLAWYQQKPGRAPKVLIYKASTLESGVPSRFSGSGSGTDFTLTISSLQPEDFATYYCQQSHSTPWTFGQGTKLEIKR | binds | binds |
| NGE3006 (scFv) scFv: EVQLVQSGGEVKRPGASVKVSCKASGSTFASYGISWVRQAPGQGLEWMGWISDSNTNTKYAQRFHGRVSLTTDTSTNTAFMELRSLTSDDTAIYYCAVMSEYDYYHYYMDVWGRGTTVTVPSGGGGSGGGGSGGGGSSELTQDPAVSVALGQTVRITCQGDSLRSYYASWYQQKPGQAPVLVIYGKNNRPSGIPDRFSGSSSGNTASLTITGAQAEDEADYYCNSRDSSGNRVFGGGTKLTVLG | binds | binds |
| NGE3102 (scFv) scFv: QVQLVESGGGLVQPGGSLRLSCATSGFTFDDYAMHWVRQAPGKGLEWVSLISWDGGSTYYADSVKSRFTISRDSSNNFLYLQMNSLRAEDTALYCCAKDLNYDFWSGTGMVVWGKGTLVTVSSGGGGSGGGGSGGGGSQSVLTQPASVSGSPGQSITISCTGTSSDVGGYNYVSWYQQHPGKAPKLMIYEGSKRPSGVSNRFSGSKSGNTASLTISGLQAEDEADYYCSSYTTRSTRVFGGGTKLTVLG | binds | binds |
| NGE2741 (scFv) scFv: GVQLVQSGAEVKKPGASVKVSCKTSGYSFTDYFIHWVRQAPGQGLEWMGWINPQSGGSHSAQKFHGRVTVTRDTSIKTAYMEVTSLTSDDTAVYFCAREGPPWTNYYFDYWGRGTLVTVSSGGGGSGGGGSGGGGSDIVMTQSPSTLSASVGDRVTITCRASQGISSWLAWYQQKPGRAPKVLIYKASTLESGVPSRFSGSGSGTDFTLTISSLQPEDFATYYCQQSYSAPWTFGQGTKLEIKR | binds | binds |

Now from value to binder:

| binding [1] | binding [2] | Binder |
| --- | --- | --- |
| binds | binds | NGF0770 (scFv) scFv: QVQLQESGGGLVQPGGSLRLSCGASGFTFRSYWMHWVRQVPGKGLAWVSRINSDGSSTWYADSVKGRLTTSRDNAKNTLYLQMNSLRIEDTAVYYCARGDPEELRSDSYFYYGMDVWGRGTLVTVSSGGGGSGGGGSGGGGSAQAVVIQEPSLTVSPGGTVTLTCSSSTGAVASGHSPTWFQQKYGQEPRTLIYSSIIKHSWTPARFSGSLLGGKAALTLSGVQPEDEADYYCLLYFGDGWVCGGGTQLTVLS |
| binds | binds | NGF0503 (scFv) scFv: QVQLVQSGAEVKKPGSSVKVSCKGSGDTFSISGFSWVRQAPGQGLEWMGGISPLLGTPKYAQKFQGRVTITADESTSAVYMEMSSLRSEDTAVYFCAKTSFVVAPDGTGYLDYWGRGTLVTVSSGGGGSGGGGSGGGGSALDIQLTQSPSTLSASVGDRVTIACRASQSVSRSLAWYQQKPGKAPKLLIYDASRLESGVPSRFSGSGFGTEFTLTITSLQPDDFATYYCQQYKGYSGTFGQGTRLEIKR |
| binds | binds | NGF0577 (scFv) scFv: QVQLQQSGAEVKKPGASVKVSCKASGYTFSAYAIHWVRQAPGQRLEWVGRASGGNYNRKYSQKLQDRVTFTSDTSATTAYMELSSLTSEDTAVYYCVREDHDYDLWSDYKGLDVWGRGTLVTVSSGGGGSGGGGSGGGGSAQSALTQPASVSGSPGQSITISCTGISGGIGAHNLVSWYQQHPGEAPTLMIFEDTKRPSGVSNRFSGSKSGNTASLTISALQTEDEADYYCFSYPRSGGGMLGFGGGTKVTVLG |
| binds | binds | NGF0502 (scFv) scFv: QLQLQESGPGLVKPSQTLSLTCTVSGGSISSGDYYWSWIRQPPGKGLEWIGYIYYSGSTYYNPSLRSRLTISVDTSKNQFSLNLNSVTAADTAVYYCARDPPPNIAALSSGYYYMDVWGRGTLVTVSSGGGGSGGGGSGGGGSALDIQLTQSPDFLAVSLGERATLKCKASQTVLSSSNKKNFLAWYQQKPGQAPRLLFFWASMREFGVPDRFAGSGSGTDFTLTISSLQTEDVGIYFCQQYYSTPTFGGGTRLEIKR |
| binds | binds | NGF0532 (scFv) scFv: EVQLVQSGAEVKRPGASVKVSCKTSGYTFTNFGLSWVRQAPGQGLEWLGWISGSNTDTKYAQRVQGRLTMTTDTSTSTAYMELRSLTSDDTAVYYCARDHSQPMLYSPDYWGRGTLVTVSSGGGGSGGGGSGGGGSAQTVVIQEPSFSVSPGGTVTLTCGLSSGAVSSTHHPSWYQHTPGQPPRTLIYSTHIRSSGVPDRFSASILGNKAALTITGAQADDESNYFCVLYMGFGTWVFGGGTKVTVLG |
| binds | binds | NGE3181 (scFv) scFv: QVQLQQWGAGLLKPSETLSLTCAVYGGSFSGYYWSWIRQPPGKGLEWIGEINHSGSTNYNPSLKSRVTISADTSKNQFSLKLSSVTAADTAVYYCARGSLLLDYWGRGTLVTVSSGGGGSGGGGSGGGGSSELTQDPAVSVALGQTVRITCQGDSLRSYYASWYQQKPGQAPVLVIYGKNNRPSGIPDRFSGSSSGNTASLTITGAQAEDEADYYCNSRDSSGNHVVFGGGTKLTVLG |
